Publication PMC12282078
No constants are given. Whether binding was seen depends on the method and setting. Binding seen in cells or lysates may run through a third protein. Some entries that bind do so weakly or less than the wild type. For some assays here: Tags and fused reporters may be left off the sequences shown.

Protein sequences, listed by entry. Tags and fused reporters are not part of them.
UniProt Q86WV6: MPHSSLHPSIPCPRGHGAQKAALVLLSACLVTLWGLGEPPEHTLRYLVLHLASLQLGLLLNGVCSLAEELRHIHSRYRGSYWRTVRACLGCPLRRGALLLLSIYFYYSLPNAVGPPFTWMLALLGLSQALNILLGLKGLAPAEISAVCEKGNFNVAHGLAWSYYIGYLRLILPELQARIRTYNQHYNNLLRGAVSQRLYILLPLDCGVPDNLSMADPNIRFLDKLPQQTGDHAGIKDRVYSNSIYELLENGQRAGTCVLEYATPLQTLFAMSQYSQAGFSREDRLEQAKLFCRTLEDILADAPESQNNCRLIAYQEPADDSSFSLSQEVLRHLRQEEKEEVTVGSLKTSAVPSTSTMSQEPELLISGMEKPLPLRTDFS

What was measured:
[1] = biological target: E1A from HAdV-C5 (full length, transfected) (human adenovirus C serotype 5 (HAdV-C5)) (UniProt P03255); test: co-IP; HEK293T cells cotransfected for 36 h; whole-cell lysates immunoprecipitated with anti-E1A, anti-V5 or anti-Flag antibody or control IgG; western blot
Flag-tagged STING = Flag-tagged STING (UniProt Q86WV6); test: as above
[2] = biological target: E1A from HAdV-C5 (full length, transfected) (human adenovirus C serotype 5 (HAdV-C5)) (UniProt P03255); test: as above; remark: listed apart in the source
[3] = biological target: E1A from HAdV-C5 (full length, transfected) (human adenovirus C serotype 5 (HAdV-C5)) (UniProt P03255); test: co-IP; HEK293T cells cotransfected with V5-tagged TRIM56 and E1A, with or without Flag-tagged STING; lysates immunoprecipitated with anti-V5 or anti-E1A antibody; 'competitive binding assays'
[4] = biological target: viral E1A (expressed during HAdV-C5 infection) (human adenovirus C serotype 5 (HAdV-C5)) (UniProt P03255); test: co-IP; A549 cells infected with HAdV-C5 (MOI 20 or 10) for 30 h; whole-cell lysates immunoprecipitated with anti-E1A or anti-TRIM56 antibody or control IgG; also with lysates treated with RNase A

Flag-tagged STING (from UniProt Q86WV6 1-379)
binding [1]: binds

B1: V5-tagged TRIM56 (full length) (protein, UniProt Q9BRZ2 1-755)
chain: MVSHGSSPSLLEALSSDFLACKICLEQLRAPKTLPCLHTYCQDCLAQLADGGRVRCPECRETVPVPPEGVASFKTNFFVNGLLDLVKARACGDLRAGKPACALCPLVGGTSTGGPATARCLDCADDLCQACADGHRCTRQTHTHRVVDLVGYRAGWYDEEARERQAAQCPQHPGEALRFLCQPCSQLLCRECRLDPHLDHPCLPLAEAVRARRPGLEGLLAGVDNNLVELEAARRVEKEALARLREQAARVGTQVEEAAEGVLRALLAQKQEVLGQLRAHVEAAEEAARERLAELEGREQVARAAAAFARRVLSLGREAEILSLEGAIAQRLRQLQGCPWAPGPAPCLLPQLELHPGLLDKNCHLLRLSFEEQQPQKDGGKDGAGTQGGEESQSRREDEPKTERQGGVQPQAGDGAQTPKEEKAQTTREEGAQTLEEDRAQTPHEDGGPQPHRGGRPNKKKKFKGRLKSISREPSPALGPNLDGSGLLPRPIFYCSFPTRMPGDKRSPRITGLCPFGPREILVADEQNRALKRFSLNGDYKGTVPVPEGCSPCSVAALQSAVAFSASARLYLINPNGEVQWRRALSLSQASHAVAALPSGDRVAVSVAGHVEVYNMEGSLATRFIPGGKASRGLRALVFLTTSPQGHFVGSDWQQNSVVICDGLGQVVGEYKGPGLHGCQPGSVSVDKKGYIFLTLREVNKVVILDPKGSLLGDFLTAYHGLEKPRVTTMVDGRYLVVSLSNGTIHIFRVRSPDS
binding (Flag-tagged STING): binds | binding [2]: binds | binding [3]: binds

B2: endogenous TRIM56 (protein, UniProt Q9BRZ2 1-755)
chain: B1 chain
binding [4]: binds
